The list is a part of this screen's results and no random one: it gathers some chemical classes. Not every dose and run of a compound is shown. T/C: endpoint of the treated group in % of that of the vehicle group. Where survival is the endpoint, this PubChem deposit counts one and a half times the control or more as active, and values a quarter to a half above the control carry no call in these data; other NCI protocols may use other cut-offs. Schedule codes are those of the source, read here as Q, the interval in days (D) or hours (H), X, the number of doses. Some T/C values are marked as having no survivor count here; that says nothing about deaths at the dose. Some doses were run more than once; their values stand side by side, smallest first.

For 8 compounds, T/C results are on record in PubChem BioAssay AID192 (DTP/NCI, 2004).

The experiment relates to BDF1 mice, B16 melanoma ip, median survival T/C. Nature of the experiment: NCI In Vivo Anticancer Drug Screen. Data for tumor model B16 Melanoma (intraperitoneal) in B6D2F1 (BDF1) mice. The settings on record: T/C endpoint: median survival time, higher T/C = longer survival. In outline: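 Mice with transplantable tumors; drug vs vehicle groups; endpoint survival or tumor size; value = T/C.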

Where [1] appears, read: dose: 0.19 mg/kg/injection, schedule: Q04DX003 (ip), vehicle: other.
The mark [2] stands for this setting: dose: 0.38 mg/kg/injection, schedule: Q04DX003 (ip), vehicle: other.
Where [3] appears, read: dose: 0.63 mg/kg/injection, schedule: Q01DX009 (ip), vehicle: Klucel (hydroxypropylcellulose) (HPC).
The mark [4] stands for this setting: dose: 0.75 mg/kg/injection, schedule: Q04DX003 (ip), vehicle: other.
The mark [5] stands for this setting: dose: 1.5 mg/kg/injection, schedule: Q04DX003 (ip), vehicle: other.

As for `CC1=C[C@H]2O[C@@H]3C[C@H]4OC(=O)/C=C\C=C\C(C(C)O)OCC(O)C(C)CC(=O)OC[C@@]2(C[C@@H]1O)[C@]4(C)[C@@]31CO1` (some centres not stated), the T/C was 156 % of control [survivor count not shown] under setting [1]; 156 % of control [survivor count not shown] under setting [2]; 183 % of control [survivor count not shown] under setting [3]; 176 % of control [survivor count not shown] (dose: 0.63 mg/kg/injection, schedule: Q01DX009 (ip), vehicle: saline + alcohol); 159 % of control [survivor count not shown] under setting [4]; 190 % of control [survivor count not shown] (dose: 1.25 mg/kg/injection, schedule: Q01DX009 (ip), vehicle: Klucel (hydroxypropylcellulose) (HPC)). Also, the T/C (dose: 1.25 mg/kg/injection, schedule: Q01DX009 (ip), vehicle: saline + alcohol) is 175 % of control [survivor count not shown]; the T/C under setting [5] was 164 % of control [survivor count not shown]; the T/C (dose: 2.5 mg/kg/injection, schedule: Q01DX009 (ip), vehicle: saline + alcohol) is 180 % of control [survivor count not shown].

Turning to `CC(=O)O[C@@H]1[C@@H](O)[C@H]2O[C@@H]3C=C(C)C(=O)[C@@H](O)[C@]3(CO)[C@]1(C)[C@]21CO1`, the T/C was 108 % of control [survivor count not shown] (dose: 0.1 mg/kg/injection, schedule: Q01DX009 (ip), vehicle: saline); 108 % of control [survivor count not shown] (dose: 0.2 mg/kg/injection, schedule: Q01DX009 (ip), vehicle: saline, evaluated on day 45); 113 % of control [survivor count not shown] (dose: 0.2 mg/kg/injection, schedule: Q01DX009 (ip), vehicle: saline, evaluated on day 60); 102 % of control [survivor count not shown] (dose: 0.4 mg/kg/injection, schedule: Q01DX009 (ip), vehicle: saline, evaluated on day 45); 119 [survivor count not shown] and 136 % of control [survivor count not shown] (dose: 0.4 mg/kg/injection, schedule: Q01DX009 (ip), vehicle: saline, evaluated on day 60); 136 % of control [survivor count not shown] (dose: 0.8 mg/kg/injection, schedule: Q01DX009 (ip), vehicle: saline, evaluated on day 45). Further, the T/C (dose: 0.8 mg/kg/injection, schedule: Q01DX009 (ip), vehicle: saline, evaluated on day 60) is 143 [survivor count not shown] and 155 % of control [survivor count not shown]; the T/C (dose: 1.6 mg/kg/injection, schedule: Q01DX009 (ip), vehicle: saline) is 146 % of control [survivor count not shown].

Turning to `CC(=O)OCC12CCC(C)=CC1OC1C(O)C(O)C2(C)C12CO2` (configuration not stated), the T/C reads like this: (dose: 0.5 mg/kg/injection, schedule: Q01DX009 (ip), vehicle: saline) 142 % of control [survivor count not shown]; (dose: 1.0 mg/kg/injection, schedule: Q01DX009 (ip), vehicle: saline) 125 % of control [survivor count not shown].

As for `C[C@H](O)[C@H]1/C=C/C=C\C(=O)O[C@@H]2C[C@H]3O[C@@H]4[C@@H]5O[C@]5(C)CCC4(COC(=O)[C@H]4O[C@]4(C)[C@@H](O)CO1)[C@]2(C)[C@]31CO1` (some centres not stated), the T/C runs as follows: (dose: 156.0 micrograms/kg/injection, schedule: Q01DX009 (ip), vehicle: saline + alcohol) 118 % of control [survivor count not shown]; (dose: 312.0 micrograms/kg/injection, schedule: Q01DX009 (ip), vehicle: saline + alcohol) 130 % of control [survivor count not shown]; (dose: 625.0 micrograms/kg/injection, schedule: Q01DX009 (ip), vehicle: other) 166 % of control [survivor count not shown]; (dose: 625.0 micrograms/kg/injection, schedule: Q01DX009 (ip), vehicle: saline + alcohol) 140 % of control [survivor count not shown]; (dose: 1250.0 micrograms/kg/injection, schedule: Q01DX009 (ip), vehicle: other) 162 % of control [survivor count not shown]; (dose: 1250.0 micrograms/kg/injection, schedule: Q01DX009 (ip), vehicle: saline + alcohol) 134 % of control [survivor count not shown]. In addition, the T/C is, setting by setting: (dose: 2500.0 micrograms/kg/injection, schedule: Q01DX009 (ip), vehicle: saline + alcohol) 145 % of control [survivor count not shown]; (dose: 5000.0 micrograms/kg/injection, schedule: Q01DX009 (ip), vehicle: saline + alcohol) 156 % of control [survivor count not shown].

As to `CC1=CC2OC3CC4OC(=O)/C=C/C=C/C(C(C)O)OCC(O)C(C)CC(=O)OCC2(CC1O)C4(C)C31CO1` (configuration not stated), the T/C (dose: 0.09 mg/kg/injection, schedule: Q04DX003 (ip), vehicle: other) is 137 % of control [survivor count not shown]; the T/C under setting [1] is 160 % of control [survivor count not shown]; the T/C under setting [2] is 169 % of control [survivor count not shown]; the T/C under setting [3] was 189 % of control [survivor count not shown]; the T/C under setting [4] was 156 % of control [survivor count not shown].

As for `C[C@@H](O)[C@H]1/C=C/C=C\C(=O)O[C@@H]2C[C@H]3O[C@@H]4[C@@H]5OC5(C)CCC4(COC(=O)[C@H]4O[C@]4(C)[C@@H](O)CO1)[C@]2(C)[C@]31CO1` (some centres not stated), the T/C under setting [4] was 123 % of control [survivor count not shown]; the T/C under setting [5] was 117 % of control [survivor count not shown]; the T/C (dose: 1.94 mg/kg/injection, schedule: Q04DX003 (ip), vehicle: saline + alcohol) is 128 % of control [survivor count not shown]; the T/C (dose: 1.94 mg/kg/injection, schedule: Q04DX003 (sc), vehicle: other) is 115 % of control [survivor count not shown]; the T/C (dose: 3.0 mg/kg/injection, schedule: Q04DX003 (ip), vehicle: other) is 112 % of control [survivor count not shown]; the T/C (dose: 3.24 mg/kg/injection, schedule: Q04DX003 (ip), vehicle: other) was 124 % of control [survivor count not shown]. For the same compound, the T/C runs as follows: (dose: 3.24 mg/kg/injection, schedule: Q04DX003 (ip), vehicle: saline + alcohol) 131 % of control [survivor count not shown]; (dose: 3.24 mg/kg/injection, schedule: Q04DX003 (sc), vehicle: other) 115 % of control [survivor count not shown]; (dose: 5.4 mg/kg/injection, schedule: Q04DX003 (ip), vehicle: other) 115 % of control [survivor count not shown]; (dose: 5.4 mg/kg/injection, schedule: Q04DX003 (ip), vehicle: saline + alcohol) 138 % of control [survivor count not shown]; (dose: 9.0 mg/kg/injection, schedule: Q04DX003 (sc), vehicle: other) 106 % of control [survivor count not shown].

Turning to `CC1=C[C@H]2O[C@@H]3[C@H](OC(=O)CCl)[C@@H](O)[C@](C)(C2(CO)CC1)[C@@]31CO1` (some centres not stated), the T/C is 102 % of control [survivor count not shown] (dose: 0.75 mg/kg/injection, schedule: Q01DX009 (ip), vehicle: saline + alcohol); 103 % of control [survivor count not shown] (dose: 1.5 mg/kg/injection, schedule: Q01DX009 (ip), vehicle: saline + alcohol); 102 % of control [survivor count not shown] (dose: 3.0 mg/kg/injection, schedule: Q01DX009 (ip), vehicle: saline + alcohol); 107 % of control [survivor count not shown] (dose: 6.0 mg/kg/injection, schedule: Q01DX009 (ip), vehicle: saline + alcohol); 107 % of control [survivor count not shown] (dose: 12.0 mg/kg/injection, schedule: Q01DX009 (ip), vehicle: saline + alcohol).

Take `CC1=C[C@H]2O[C@H]3[C@H](O)[C@@H](OC(=O)CCl)[C@](C)([C@@]2(COC(=O)CCl)CC1)[C@@]31CO1`: the T/C (dose: 2.0 mg/kg/injection, schedule: Q01DX009 (ip), vehicle: saline + alcohol) is 102 % of control [survivor count not shown]; the T/C (dose: 4.0 mg/kg/injection, schedule: Q01DX009 (ip), vehicle: saline + alcohol) is 99 % of control [survivor count not shown]; the T/C (dose: 8.0 mg/kg/injection, schedule: Q01DX009 (ip), vehicle: saline + alcohol) is 103 % of control [survivor count not shown]; the T/C (dose: 16.0 mg/kg/injection, schedule: Q01DX009 (ip), vehicle: saline + alcohol) is 108 % of control [survivor count not shown].
